Results are given in words; binding and its absence hold for the method and conditions named. In cells and extracts the contact can be indirect. Some results given as binding are weak or reduced against the parent protein; the word gives no strength.
Biological target: FLAG-tagged endogenous NIPBL (human (endogenous in the FLAG-NIPBL cells)) (UniProt Q6KC79)
Assay: co-IP; nuclear fraction of cells expressing endogenous FLAG-tagged NIPBL; NIPBL precipitated with antibodies against FLAG or NIPBL; controls: NIPBL siRNA, cells without the FLAG tag; cells untreated or treated with triptolide; blots of RPB1 and MAU2

By UniProt entry, the sequences of proteins in these tests, tags left out.
UniProt Q6KC79: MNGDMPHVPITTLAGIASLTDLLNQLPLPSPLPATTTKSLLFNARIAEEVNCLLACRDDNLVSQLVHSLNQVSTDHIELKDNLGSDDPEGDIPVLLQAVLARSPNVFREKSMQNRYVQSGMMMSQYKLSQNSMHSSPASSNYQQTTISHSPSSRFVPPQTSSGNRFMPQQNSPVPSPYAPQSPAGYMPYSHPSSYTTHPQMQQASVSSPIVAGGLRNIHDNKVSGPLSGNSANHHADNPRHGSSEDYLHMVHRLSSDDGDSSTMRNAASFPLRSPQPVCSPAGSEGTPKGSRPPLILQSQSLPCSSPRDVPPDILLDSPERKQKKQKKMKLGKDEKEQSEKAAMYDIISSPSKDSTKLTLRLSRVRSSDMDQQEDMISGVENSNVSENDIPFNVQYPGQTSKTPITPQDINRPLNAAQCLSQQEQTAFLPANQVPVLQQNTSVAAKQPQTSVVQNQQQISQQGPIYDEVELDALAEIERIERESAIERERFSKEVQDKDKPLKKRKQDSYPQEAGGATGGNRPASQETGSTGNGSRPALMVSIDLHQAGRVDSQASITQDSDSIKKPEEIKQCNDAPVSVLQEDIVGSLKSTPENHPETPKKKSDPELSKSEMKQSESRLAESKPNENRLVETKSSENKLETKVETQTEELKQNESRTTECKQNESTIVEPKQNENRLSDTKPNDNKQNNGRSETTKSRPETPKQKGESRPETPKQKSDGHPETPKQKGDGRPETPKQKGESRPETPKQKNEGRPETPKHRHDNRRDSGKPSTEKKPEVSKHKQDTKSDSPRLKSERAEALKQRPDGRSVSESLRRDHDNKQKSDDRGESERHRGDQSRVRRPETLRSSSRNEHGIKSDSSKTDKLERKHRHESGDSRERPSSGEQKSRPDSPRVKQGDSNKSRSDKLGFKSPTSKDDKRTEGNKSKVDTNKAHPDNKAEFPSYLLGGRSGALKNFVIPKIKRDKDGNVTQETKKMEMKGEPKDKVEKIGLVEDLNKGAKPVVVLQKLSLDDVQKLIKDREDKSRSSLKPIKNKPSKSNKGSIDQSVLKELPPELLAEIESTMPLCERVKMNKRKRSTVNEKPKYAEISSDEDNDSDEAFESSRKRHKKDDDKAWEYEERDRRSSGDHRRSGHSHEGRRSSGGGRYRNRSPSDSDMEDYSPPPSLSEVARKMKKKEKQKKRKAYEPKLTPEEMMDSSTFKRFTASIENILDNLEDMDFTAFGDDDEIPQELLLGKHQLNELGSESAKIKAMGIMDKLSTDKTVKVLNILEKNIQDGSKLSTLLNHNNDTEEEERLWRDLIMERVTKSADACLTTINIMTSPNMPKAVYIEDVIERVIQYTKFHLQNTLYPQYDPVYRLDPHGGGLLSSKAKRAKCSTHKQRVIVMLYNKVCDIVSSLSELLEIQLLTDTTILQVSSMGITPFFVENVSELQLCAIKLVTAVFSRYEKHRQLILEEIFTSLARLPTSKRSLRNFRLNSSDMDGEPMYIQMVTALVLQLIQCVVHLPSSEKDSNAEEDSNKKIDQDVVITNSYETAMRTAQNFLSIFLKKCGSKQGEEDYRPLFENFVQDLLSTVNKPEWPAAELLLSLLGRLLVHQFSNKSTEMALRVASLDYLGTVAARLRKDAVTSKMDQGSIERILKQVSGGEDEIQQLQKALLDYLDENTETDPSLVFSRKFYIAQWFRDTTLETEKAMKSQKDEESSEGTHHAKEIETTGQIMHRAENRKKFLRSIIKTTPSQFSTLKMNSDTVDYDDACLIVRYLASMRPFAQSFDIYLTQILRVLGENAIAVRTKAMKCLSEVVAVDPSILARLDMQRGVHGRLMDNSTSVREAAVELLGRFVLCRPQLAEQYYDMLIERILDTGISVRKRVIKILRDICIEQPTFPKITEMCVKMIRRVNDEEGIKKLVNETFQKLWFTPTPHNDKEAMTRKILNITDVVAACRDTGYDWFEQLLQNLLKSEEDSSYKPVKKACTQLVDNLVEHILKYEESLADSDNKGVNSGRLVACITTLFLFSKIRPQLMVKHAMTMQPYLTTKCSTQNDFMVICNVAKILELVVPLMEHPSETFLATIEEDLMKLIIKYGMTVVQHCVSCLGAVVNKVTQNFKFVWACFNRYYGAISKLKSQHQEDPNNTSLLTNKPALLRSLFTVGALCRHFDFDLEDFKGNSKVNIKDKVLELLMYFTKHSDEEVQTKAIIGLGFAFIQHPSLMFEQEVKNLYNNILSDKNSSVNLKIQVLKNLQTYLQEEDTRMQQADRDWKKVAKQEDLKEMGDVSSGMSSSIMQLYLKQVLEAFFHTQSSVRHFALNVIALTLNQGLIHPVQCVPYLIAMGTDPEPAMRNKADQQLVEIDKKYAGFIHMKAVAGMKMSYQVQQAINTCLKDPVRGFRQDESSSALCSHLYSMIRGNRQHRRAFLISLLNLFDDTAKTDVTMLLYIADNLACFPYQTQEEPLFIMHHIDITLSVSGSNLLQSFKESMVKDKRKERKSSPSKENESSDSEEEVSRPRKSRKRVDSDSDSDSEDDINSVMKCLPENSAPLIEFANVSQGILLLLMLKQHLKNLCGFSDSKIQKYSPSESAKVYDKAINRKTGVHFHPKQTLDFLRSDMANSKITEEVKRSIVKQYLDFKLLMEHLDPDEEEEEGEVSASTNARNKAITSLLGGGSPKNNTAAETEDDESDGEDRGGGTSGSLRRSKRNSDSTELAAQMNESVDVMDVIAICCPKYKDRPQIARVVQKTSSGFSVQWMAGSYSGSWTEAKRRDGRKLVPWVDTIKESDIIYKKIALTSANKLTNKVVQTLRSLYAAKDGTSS

B1: MAU2 (protein, UniProt Q9Y6X3 1-613)
chain: MAAQAAAAAQAAAAQAAQAEAADSWYLALLGFAEHFRTSSPPKIRLCVHCLQAVFPFKPPQRIEARTHLQLGSVLYHHTKNSEQARSHLEKAWLISQQIPQFEDVKFEAASLLSELYCQENSVDAAKPLLRKAIQISQQTPYWHCRLLFQLAQLHTLEKDLVSACDLLGVGAEYARVVGSEYTRALFLLSKGMLLLMERKLQEVHPLLTLCGQIVENWQGNPIQKESLRVFFLVLQVTHYLDAGQVKSVKPCLKQLQQCIQTISTLHDDEILPSNPADLFHWLPKEHMCVLVYLVTVMHSMQAGYLEKAQKYTDKALMQLEKLKMLDCSPILSSFQVILLEHIIMCRLVTGHKATALQEISQVCQLCQQSPRLFSNHAAQLHTLLGLYCVSVNCMDNAEAQFTTALRLTNHQELWAFIVTNLASVYIREGNRHQEVLYSLLERINPDHSFPVSSHCLRAAAFYVRGLFSFFQGRYNEAKRFLRETLKMSNAEDLNRLTACSLVLLGHIFYVLGNHRESNNMVVPAMQLASKIPDMSVQLWSSALLRDLNKACGNAMDAHEAAQMHQNFSQQLLQDHIEACSLPEHNLITWTDGPPPVQFQAQNGPNTSLASLL
binding: binds

Source: paper PMC13503787
